Experimental data as given in PubChem BioAssay AID1347076 (National Center for Advancing Translational Sciences (NCATS), 2019).
The whole screen tested about 400,000 compounds, of which about 13,000 (3.2%) were called active. This list was built around the results that the source calls inconclusive (neither active nor inactive); the mix of calls is not that of the screen. The call rests on the fitted dose curve; in most records, active means well fitted cell-killing curve with a large enough effect; inconclusive means small, poorly fitted or top-dose-only effect, or effect the other way; inactive means flat fitted curve, though single readings scatter. A potency beside an inconclusive call is a rough fit, not a confirmed value.

experiment: qHTS assay for MDR1-selective chemotherapeutics: Primary screen using the drug-selected MDR subline cells KB-V1; settings: KB-V1 MDR cells viability, CellTiter-Glo, 72 h; series mostly up to 46.1 µM; further: nearly all actives have a fitted effect of over 60% in size
Method in brief: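 KB-V1 MDR subline cells in DMEM (phenol-red free, 10% FBS) exposed to compounds in qHTS concentration series for 72 h at 37 degrees C. Viability read by CellTiter-Glo luminescence; concentration-effect curves fitted after normalization and correction.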
Potency means the concentration at half of the fitted maximal effect.

SMILES | Potency
CSc1ccccc1C(=O)NC1CCCN(Cc2ccccc2F)C1 (stereo not given) | inconclusive: 29.1 µM [cytotoxic, single point]
CN1CCN(c2ccc(CNC(=O)C3Cc4c(-c5ccccc5Oc5ccccc5)ccnc4O3)cc2)CC1 (stereo not given) | inactive
COc1ccc(S(=O)(=O)N2CCCCCC2)cc1NC(=O)c1c2c(nc3ccccc13)CCN(Cc1ccccc1)C2 | inconclusive: 4.61 µM [cytotoxic, full curve]
Cc1ccc2cc(C#N)c(NCCNC(=O)C3CC3)nc2c1C | active: 3.66 µM
CSc1ncc(Cl)c(C(=O)Nc2ccc(C)c(C)c2)n1 | inactive
C=CCOC(=O)C1=C(C)NC(C)=C(C(=O)OCC=C)C1c1cccs1 | active: 16.4 µM
CCOc1ccc(NC(=O)COC(=O)c2ccccc2OCC(=O)N(C)C)cc1 | inactive
CSc1ncccc1C(=O)OCCCC(=O)c1ccc(F)cc1 | inconclusive: 0.58 µM [rising, full curve, poor fit]
O=C(/C=C/c1cn(CC(O)CN2CCCCCC2)c2ccccc12)c1ccc(Br)cc1 (stereo not given) | inactive
O=C(N/N=C/c1cccs1)c1n[nH]c2c1CCC2 | inconclusive: 9.2 µM [cytotoxic, partial curve, poor fit]
Cc1cc2nc(-c3cccc(NC(=O)CSc4ccc(Cl)cc4)c3)oc2cc1C | inactive
CCOC(=O)c1cnc2ccc(OC)cc2c1Nc1ccc2c(c1)OCCO2 | inconclusive: 18.4 µM [cytotoxic, partial curve, poor fit]
O=C(OCc1cn([C@H]2CN(CC3CCCCC3)[C@@H](c3ccc(Cl)cc3)C[C@@H]2O)nn1)c1ccccc1 | inconclusive: 29.1 µM [cytotoxic, single point]
N=C(N)SCc1nc2ccccc2c(=O)n1-c1ccccc1 | inconclusive: 23.1 µM [cytotoxic, single point]
C[C@H](c1ccccc1)N1C[C@H](COCc2ccccc2)Oc2cc(N3CCC[C@H]3C(N)=O)ccc2S1(=O)=O | inconclusive: 8.2 µM [cytotoxic, partial curve]
CCCN(C(=O)c1cc2c(s1)-c1c(C)cccc1OC2)c1ccc(OCC)cc1 | inactive
O=C(Nc1cccnc1)c1sc(Nc2ccccc2F)nc1-c1ccccc1 | inactive
CC(C)c1ccc(Nc2nc3c(S(=O)(=O)c4ccc(Br)cc4)nnn3c3ccsc23)cc1 | inactive
COc1cc(C(=O)NCC(c2cccs2)N2CCOCC2)ccc1OCc1ccc(Cl)cc1 (stereo not given) | inconclusive: 2.91 µM [cytotoxic, full curve]
COc1ccc(-c2nn(-c3cccc([N+](=O)[O-])c3)c3c2cnc2cc4c(cc23)OCO4)cc1 | inactive
COc1ccc(-n2cc(CNCCc3nc(C)cc(C)n3)c(-c3ccccc3Cl)n2)cc1 | inconclusive: 10.3 µM [cytotoxic, partial curve]
O=C(Nc1nc(=O)c2ccccc2s1)c1ccc(Cl)cc1 | inactive
N/C(=N\OC(=O)Nc1ccccc1)c1ncc([N+](=O)[O-])s1 | inconclusive: 20.6 µM [cytotoxic, single point]

SMILES | Potency
COc1ccc(C2c3[nH]c4ccc(OC)cc4c3CCN2C(=O)Nc2ccccc2)cc1 (stereo not given) | inconclusive: 18.4 µM [cytotoxic, partial curve, poor fit]
O=c1[nH]ncc(N2CCN(C(c3ccccc3)c3ccccc3)CC2)c1Cl | inconclusive: 11.6 µM [cytotoxic, partial curve]
Cc1ccc(C)c(-n2c(-c3csc(C)c3)n[nH]c2=S)c1 | active: 18.4 µM
Cc1ccsc1/C=C(/C#N)C(=O)NCc1ccccc1 | inconclusive: 14.6 µM [cytotoxic, partial curve]
O=C(Nc1c(Cl)cccc1Cl)c1cc(-c2cccc(O)c2)on1 | inactive
Cc1c(C(=O)NC2CCCc3ccccc32)cccc1[N+](=O)[O-] (stereo not given) | inconclusive: 18.4 µM [cytotoxic, single point]
Cc1ccc(NC(=O)Cn2cc(S(=O)(=O)c3ccccc3)c(=O)c3cc4c(cc32)OCO4)cc1 | inconclusive: 29.1 µM [rising, single point]
Cc1nc(-c2ccc3c(c2)CCC(=O)N3)cs1 | active: 1.3 µM
COc1cccc(NC(=O)CC2COc3ccccc3O2)c1 (stereo not given) | inconclusive: 29.1 µM [cytotoxic, single point]
COc1ccc(NC(=O)C2(C)CCN2Cc2ccccc2OC(F)F)cc1OC (stereo not given) | inconclusive: 10.3 µM [cytotoxic, partial curve]
CCC(=O)Nc1sc2c(c1C(=O)Nc1cccc(C)c1)CCCC2 | inconclusive: 20.6 µM [cytotoxic, single point]
Cc1ccccc1NC(=O)C1CC(=O)N(Cc2ccccc2)C1 (stereo not given) | inactive
CC(C)(C)c1cc(/C=N/O)cc(C(C)(C)C)c1O | inconclusive: 8.2 µM [cytotoxic, partial curve]
COc1ccc(-c2noc(-c3ccc(N4CCC(C)CC4)c([N+](=O)[O-])c3)n2)cc1OC | inconclusive: 29.1 µM [rising, single point]
O=C(NCCc1csc2nc(-c3cccc(F)c3)nn12)c1ccc(Br)o1 | inactive
CCN1CCN(c2ccc(NC(=O)CCc3c(C)nc4c(-c5ccccc5)c(C)nn4c3C)cc2)CC1 | inconclusive: 29.1 µM [cytotoxic, single point]
C/C(N=Nc1nc2ccccc2s1)=N\Nc1ccccc1O | inactive
Cc1ccc(CNC(=O)CSc2nc3n[nH]c(C)c3c(=N)n2-c2cccc(C)c2)cc1 | inactive
CC(=O)c1ccc(OCCCCCCCOc2ccc(C(C)=O)cc2)cc1 | inconclusive: 10.3 µM [rising, partial curve, poor fit]
Cc1ccc2c(c1)CCCN2C(=O)c1cnn2c1NC(=C1CC1)C=C2C(F)F | inconclusive: 14.6 µM [cytotoxic, partial curve]
O=C(Cc1ccccc1)Nc1ccc(NC(=O)c2ccco2)nc1 | inactive
COc1cccc(CN2CCC2(C)C(=O)NCCc2ccccn2)c1OC (stereo not given) | inconclusive: 4.11 µM [cytotoxic, partial curve]
